We go through 1 compound from patent US9434734B2, “Substituted pyrazoloquinazolinones and pyrroloquinazolinones as allosteric modulators of group II metabotropic glutamate receptors” (Domain Therapeutics, priority 2012, dated 2016).

On to `Cn1c(=O)c2ccc(-c3cccc(S(N)(=O)=O)c3)cc2n2nc(-c3ccccc3)cc12` [Example 1, 3-(4-Methyl-5-oxo-2-phenyl-4,5-dihydro-pyrazolo[1,5-a]quinazolin-8-yl)-benzenesulfonamide], for which the melting point is 220 to 230 °C.
